This note sets out measurements from patent US7138489 (dated 2006).

A short description of data set [1]: general procedure: hybrid (solid and solution phase) peptide synthesis; prolyl-2-chlorotrityl resin; HBTU; HOOBt/DCC; HBTU/DIPEA for fragment condensation. The note with it: whole synthesis.
Data set [2] can be described thus: general procedure: hybrid (solid and solution phase) peptide synthesis; prolyl-2-chlorotrityl resin (Novabiochem); HBTU; HOOBt/DCC; HBTU/DIPEA for fragment condensation. Particulars: whole synthesis; for crude HPLC purity / crude yield: scale of the general procedure 1.0 mmol, 0.25 mmol.
Data set [3] is described as follows: peptide synthesis.

On to “Boc-Gly-Ser(tBu)-Ser(Octanoyl)-Phe-Leu-Ser(tBu)-Pro-OH”, for which the crude mass in data set [1] (scale 0.25 mmol) came to 248 mg; in data set [1] (scale 1.0 mmol, run 1), 742 mg; in data set [1] (scale 1.0 mmol, run 2) it was 715 mg. Moreover, the crude yield entry is “yield 72%” in data set [1] (scale 1.0 mmol), “yield 69%” in data set [2] (run 1) and “yield 96%” in data set [2] (run 2). Moreover, the isolated mass in data set [2] came out at 210 mg. For the same substance, the “crude HPLC purity” value in data set [2] (run 1) was determined as 94%; in data set [2] (run 2), 74%.

As to “Boc-Gly-Ser(tBu)-Ser-Phe-Leu-Ser(tBu)-Pro-OH”, in data set [1] (scale 0.25 mmol), the crude mass is listed as 165 mg.

Turning to “GSS (n-octanoyl) FLSPEHQRVQQRKESKKPPAKLQPR (Ser3 n-octanoyl; N-terminal GSS)”, the “final HPLC purity” value in data set [3] (coupling step) was 98%. Moreover, the “crude HPLC purity” value in data set [3] (coupling step, run 1) stood at 80%; in data set [3] (coupling step, run 2), 83%. Moreover, the step yield entry in data set [3] (purification step) is “recovery rate 73%”.
